# Measurements published in the supplement of paper PMC4604168 (melanoma cell lines).
# The other results are listed elsewhere or left out. Single values are uncertain, as repeats are few or missing.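 Imaging used 1,536-well plates; nuclei positive for cleaved PARP by antibody were divided by total DNA-stained nuclei to yield the apoptosis fraction. Doses for screening kept most cells viable, and cell lines differ markedly in resting and induced cleaved-PARP levels.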
# Columns and labels:
# Assay in all cases: cleaved PARP positive nuclei fraction relative to DMSO control; melanoma cells; higher = more apoptosis
# Conditions in all cases: library dose: low library concentration; 72 h
# COLO792 = tested on: COLO792
# COLO800 = tested on: COLO800
# COLO829 = tested on: COLO829
# G361 = tested on: G361
# IPC-298 = tested on: IPC-298
# IST-MEL1 = tested on: IST-MEL1
# LB2518-MEL = tested on: LB2518-MEL
# LOXIMVI = tested on: LOXIMVI
# MZ2-MEL = tested on: MZ2-MEL
# MeWo = tested on: MeWo
# RPMI7951 = tested on: RPMI7951
# RVH-421 = tested on: RVH-421
# SkMel28 = tested on: SkMel28
# SkMel2 = tested on: SkMel2
# SkMel30 = tested on: SkMel30
# SkMel5 = tested on: SkMel5
# UACC257 = tested on: UACC257
# UACC62 = tested on: UACC62
# MEL-HO = tested on: MEL-HO
SMILES,cleaved PARP positive nuclei fraction (COLO792),cleaved PARP positive nuclei fraction (COLO800),cleaved PARP positive nuclei fraction (COLO829),cleaved PARP positive nuclei fraction (G361),cleaved PARP positive nuclei fraction (IPC-298),cleaved PARP positive nuclei fraction (IST-MEL1),cleaved PARP positive nuclei fraction (LB2518-MEL),cleaved PARP positive nuclei fraction (LOXIMVI),cleaved PARP positive nuclei fraction (MZ2-MEL),cleaved PARP positive nuclei fraction (MeWo),cleaved PARP positive nuclei fraction (RPMI7951),cleaved PARP positive nuclei fraction (RVH-421),cleaved PARP positive nuclei fraction (SkMel28),cleaved PARP positive nuclei fraction (SkMel2),cleaved PARP positive nuclei fraction (SkMel30),cleaved PARP positive nuclei fraction (SkMel5),cleaved PARP positive nuclei fraction (UACC257),cleaved PARP positive nuclei fraction (UACC62),cleaved PARP positive nuclei fraction (MEL-HO)
"C=CCNC1=C2C[C@@H](C)C[C@H](OC)[C@H](O)[C@@H](C)/C=C(\C)[C@H](OC(N)=O)[C@@H](OC)/C=C\C=C(/C)C(=O)NC(=CC1=O)C2=O [Tanespimycin] + Cc1cc([N+](=O)[O-])ccc1NS(=O)(=O)c1cc(Cl)ccc1Cl [FH535] (first compound 0.002 µM, partner dose 1 µM)",52%,175%,91.3%,81.2%,159%,67.8%,127%,87.7%,109%,87.6%,51.4%,123%,112%,60.5%,141%,87.6%,95.5%,54.3%,
"C#Cc1cccc(Nc2ncnc3cc(OCCOC)c(OCCOC)cc23)c1 [erlotinib] + CO[C@@H]1[C@H](N(C)C(=O)c2ccccc2)C[C@H]2O[C@]1(C)n1c3ccccc3c3c4c(c5c6ccccc6n2c5c31)C(=O)NC4 [Midostaurin] (first compound 0.8 µM, partner dose 0.08 µM)",47%,96.2%,118%,59.2%,49.2%,108%,89.3%,114%,86.8%,201%,75.4%,113%,59.3%,122%,74.3%,138%,47.2%,34.6%,76.5%
"OCc1c[nH]c2ccccc12 [Indole-3-carbinol] + Cc1cc([N+](=O)[O-])ccc1NS(=O)(=O)c1cc(Cl)ccc1Cl [FH535] (first compound 0.8 µM, partner dose 1 µM)",206%,33.1%,60.5%,119%,102%,214%,67.3%,52.1%,120%,44%,62.5%,130%,47%,115%,42.2%,88.8%,191%,88.4%,
"OCc1c[nH]c2ccccc12 [Indole-3-carbinol] + O=C1NC(=O)/C(=C/c2ccc(-c3ccc(F)cc3O)o2)S1 [AS252424] (first compound 0.8 µM, partner dose 1 µM)",56.3%,76.5%,66%,172%,77.6%,144%,38%,140%,161%,91.8%,63.7%,554%,294%,135%,43.7%,72%,151%,66.8%,
"Clc1ccc(Nc2nnc(Cc3ccncc3)c3ccccc23)cc1 [vatalanib] + Cn1cncc1[C@@](N)(c1ccc(Cl)cc1)c1ccc2c(c1)c(-c1cccc(Cl)c1)cc(=O)n2C [tipifarnib] (first compound 2 µM, partner dose 0.01 µM)",131%,57%,75.7%,70.8%,52.6%,47.2%,110%,135%,62.2%,75.9%,275%,153%,145%,117%,152%,44.2%,108%,434%,96.1%
"Clc1ccc(Nc2nnc(Cc3ccncc3)c3ccccc23)cc1 [vatalanib] + CC(C)CCN1c2nc(Nc3cc(F)c(O)c(F)c3)ncc2N(C)C(=O)C1C [BID1870] (first compound 2 µM, partner dose 0.2 µM)",125%,93.8%,66.9%,26.9%,84.3%,129%,77.7%,95%,351%,33.1%,42.7%,152%,195%,104%,20%,22%,83.2%,92.3%,
"CC(=O)c1c(C)c2cnc(Nc3ccc(N4CCNCC4)cn3)nc2n(C2CCCC2)c1=O [palbociclib] + CCCCCCCCCCCC1=C(O)C(=O)C=C(O)C1=O [Embelin] (first compound 0.04 µM, partner dose 1.2 µM)",35.1%,56.2%,53.4%,29.2%,150%,101%,111%,83.1%,156%,101%,47.5%,153%,442%,30.2%,112%,119%,64.9%,82.6%,
"Clc1ccc(Nc2nnc(Cc3ccncc3)c3ccccc23)cc1 [vatalanib] + c1cc(-c2cnn3cc(-c4ccc(OCCN5CCCCC5)cc4)cnc23)ccn1 [Dorsomorphin] (first compound 2 µM, partner dose 0.4 µM)",99.7%,91.3%,113%,144%,84.8%,44.9%,84.3%,34.4%,138%,538%,100%,48.4%,259%,89.1%,74.7%,94.5%,131%,85.7%,
"OCc1c[nH]c2ccccc12 [Indole-3-carbinol] + Oc1nc(-c2ccc(C(F)(F)F)cc2)nc2c1CSCC2 [XAV939] (first compound 0.8 µM, partner dose 2 µM)",63.9%,51.5%,63%,57.1%,46.5%,183%,145%,162%,201%,67.5%,119%,112%,113%,51.3%,115%,133%,367%,88.1%,
"OCc1c[nH]c2ccccc12 [Indole-3-carbinol] + COc1ccc2c(c1)CCC1C2CCC2(C)C(NCCCCCCN3C(=O)C=CC3=O)CCC12 [U73122] (first compound 0.8 µM, partner dose 0.4 µM)",99.7%,21.6%,116%,107%,156%,66%,32.8%,73.5%,135%,120%,89.9%,157%,60.1%,74.9%,276%,78.7%,69.8%,124%,
"Cc1nc(Nc2ncc(C(=O)Nc3c(C)cccc3Cl)s2)cc(N2CCN(CCO)CC2)n1 [dasatanib] + CO[C@@H]1[C@H](N(C)C(=O)c2ccccc2)C[C@H]2O[C@]1(C)n1c3ccccc3c3c4c(c5c6ccccc6n2c5c31)C(=O)NC4 [Midostaurin] (first compound 0.004 µM, partner dose 0.08 µM)",102%,72.8%,210%,186%,100%,59.3%,102%,91.6%,213%,140%,76.5%,83%,127%,144%,69.8%,102%,85.9%,167%,158%
"C=CCNC1=C2C[C@@H](C)C[C@H](OC)[C@H](O)[C@@H](C)/C=C(\C)[C@H](OC(N)=O)[C@@H](OC)/C=C\C=C(/C)C(=O)NC(=CC1=O)C2=O [Tanespimycin] + c1cc(-c2cnn3cc(-c4ccc(OCCN5CCCCC5)cc4)cnc23)ccn1 [Dorsomorphin] (first compound 0.002 µM, partner dose 0.4 µM)",25.4%,113%,109%,121%,61.7%,95.7%,96.4%,99.4%,46.2%,35.8%,72.6%,60.5%,87%,29.8%,109%,76.4%,444%,76.6%,
"C[C@]1(c2nc3c(C(N)=O)cccc3[nH]2)CCCN1 [Veliparib] + NCC(=O)Nc1ccc(-n2nc(C(F)(F)F)cc2-c2ccc3c(ccc4ccccc43)c2)cc1 [OSU03012] (first compound 1.4 µM, partner dose 1 µM)",180%,60.4%,102%,113%,146%,96.1%,47.6%,108%,48.2%,234%,76.7%,126%,40.7%,178%,277%,31.8%,142%,133%,63.3%
"Clc1ccc(Nc2nnc(Cc3ccncc3)c3ccccc23)cc1 [vatalanib] + CO[C@@H]1[C@H](N(C)C(=O)c2ccccc2)C[C@H]2O[C@]1(C)n1c3ccccc3c3c4c(c5c6ccccc6n2c5c31)C(=O)NC4 [Midostaurin] (first compound 2 µM, partner dose 0.08 µM)",109%,127%,119%,75.2%,50.2%,113%,194%,81.9%,265%,147%,52.7%,93%,133%,119%,56.4%,90.6%,130%,183%,73.5%
"CC(=O)c1c(C)c2cnc(Nc3ccc(N4CCNCC4)cn3)nc2n(C2CCCC2)c1=O [palbociclib] + CCN(CC)CCCCNc1ncc2cc(-c3cc(OC)cc(OC)c3)c(NC(=O)NC(C)(C)C)nc2n1 [PD173074] (first compound 0.04 µM, partner dose 0.1 µM)",302%,100%,22.8%,55.4%,330%,40.5%,45.5%,99.9%,88.9%,51.5%,133%,126%,179%,172%,103%,222%,216%,135%,
"Cc1ccc(NC(=O)c2cccc(N(C)C)c2)cc1NC(=O)c1ccc(O)cc1 + CN(NC(=O)CC(=O)NN(C)C(=S)c1ccccc1)C(=S)c1ccccc1 [STA4783] (first compound 2 µM, partner dose 0.006 µM)",129%,61.9%,187%,122%,125%,252%,270%,133%,141%,40.3%,51.1%,256%,84%,40.1%,76.6%,122%,69.7%,84.4%,78.7%
"Clc1ccc(Nc2nnc(Cc3ccncc3)c3ccccc23)cc1 [vatalanib] + COc1cc(N2CCC(N3CCN(C)CC3)CC2)ccc1Nc1ncc(Cl)c(Nc2ccccc2S(=O)(=O)C(C)C)n1 [NVP-TAE684] (first compound 2 µM, partner dose 0.08 µM)",120%,40%,139%,66.9%,55.7%,179%,72%,282%,75.6%,156%,41.1%,178%,146%,114%,115%,39.5%,123%,287%,
